Some entries share one result that the patent states for a list of compounds.
Test system: Down's syndrome-derived acute megakaryoblastic leukemia (AMKL) cells J425
Assay: Inhibition of growth of cancer cells (Alamar Blue)
Type: cell-based
Settings: J425, cultivation for 5 days

Structure (SMILES) | inhibitory effect on the growth of the cancer cells
CCN1/C(=C/C(C)=O)Sc2ccc3oc4ccccc4c3c21 [Compound 3, (Z)-1-[1-ethylbenzo[2,3]benzofuro[4,5-d]thiazol-2(1H)-ylidene]propan-2-one] | excellent inhibitory effect
CCN1/C(=C/C(C)=O)Sc2ccc3occc3c21 [Compound 2, (Z)-1-[1-ethyl-7,8-benzofuro[4,5-d]thiazol-2(1H)-ylidene]propan-2-one] | excellent inhibitory effect
N=C1NC(=O)/C(=C/c2ccc3oc4ccccc4c3c2)S1 [Compound 9, (Z)-5-[(dibenzo[b,d]furan-2-yl)methylene]-2-iminothiazolidin-4-one] | excellent inhibitory effect
CCN1/C(=C/C(C)=O)Sc2ccc3c(c21)CCO3 [Compound 1, (Z)-1-[1-ethyl-7,8-dihydrobenzofuro[4,5-d]thiazol-2(1H)-ylidene]propan-2-one] | excellent inhibitory effect
O=C1NC(=S)S/C1=C\c1ccc2oc3ccccc3c2c1 [Compound 6, (Z)-5-[(dibenzo[b,d]furan-2-yl)methylene]-2-thioxothiazolidin-4-one] | excellent inhibitory effect

Reference: patent publication US10017524B2, “Compound and pharmaceutical composition for neuropsychological disorder or malignant tumor” (KYOTO UNIVERSITY, priority 2012, dated 2018)
